In the supplement of paper PMC12823440, “Inhibitors supercharge kinase turnover through native proteolytic circuits” (Nature, 2025):
Where a name gives a salt, the structure may show the parent alone. The list shows a part of the results. The calls rarely recur for the same compound in another form.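 In K562 cells expressing nanoluciferase-fused kinases, luminescence was recorded at 4 h intervals between 2 and 18 h, normalized as percent of control with DMSO at 100% and a positive control at 0%. A significant (2 sigma) signal drop marks a time point as decreased. The authors' rule for a hit is not shown and takes in more than the number of time points.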

By UniProt entry, the sequences of proteins in these tests, tags left out. Where a name states a change or a piece, a line headed by the entry shows the natural chain unless it says otherwise.
UniProt P31749: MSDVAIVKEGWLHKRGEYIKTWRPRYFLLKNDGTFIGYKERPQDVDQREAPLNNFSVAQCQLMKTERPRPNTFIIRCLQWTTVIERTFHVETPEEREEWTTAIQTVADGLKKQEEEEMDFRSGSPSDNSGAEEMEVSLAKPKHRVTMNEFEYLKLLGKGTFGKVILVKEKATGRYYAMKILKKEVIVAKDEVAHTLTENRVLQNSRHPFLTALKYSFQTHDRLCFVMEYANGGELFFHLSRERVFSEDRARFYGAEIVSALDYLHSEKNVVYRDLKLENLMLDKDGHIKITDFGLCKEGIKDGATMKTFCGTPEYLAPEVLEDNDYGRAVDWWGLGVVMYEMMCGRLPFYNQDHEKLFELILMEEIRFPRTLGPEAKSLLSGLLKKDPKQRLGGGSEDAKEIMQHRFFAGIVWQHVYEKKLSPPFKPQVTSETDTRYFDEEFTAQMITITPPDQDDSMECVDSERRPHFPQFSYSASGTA

Biological target: AKT1 (UniProt P31749)
Assay: kinase-Nluc reporter destabilization hit call (1 = scored as downregulated) (binary); higher = compound decreases kinase abundance
Details: K562; 2-18 h

kinase-Nluc reporter destabilization hit call, inactive:
COc1ccc(C(=C2C(=O)Nc3ccccc32)c2ccc(OC)cc2)cc1 (10 µM) 0
CN1CCN(c2ccc(C(=O)Nc3cc(-c4cccc(NS(=O)(=O)c5ccccc5)c4)[nH]n3)cc2)CC1 [BPR1J-097 Hydrochloride] (2.5 µM) 0
C=CC(=O)Nc1cc2c(Nc3ccc(OCc4ccccn4)c(Cl)c3)ncnc2cc1OCCN1CCOCC1 (10 µM) 0
Cc1c(NC(=O)OC[C@@H]2COCCN2)cn2ncnc(Nc3ccc4c(cnn4Cc4cccc(F)c4)c3)c12 (10 µM) 0
CNc1nc(Nc2cnn(C3CCN(C4COC4)CC3F)c2Cl)ncc1C(F)(F)F (stereo unspecified) (10 µM) 0
O=C(NCCO)c1ccc2c(c1)nc(Nc1cccc(Cl)c1)c1ccncc12 [CK2 inhibitor 2] (10 µM) 0
N#CC(c1ccnc(NCCc2cccnc2)n1)c1nc2ccccc2s1 (stereo unspecified) (10 µM) 0
CCN(CC)S(=O)(=O)c1ccc(OC)c(N2CCN(C(=O)c3ccc(F)cc3C(F)(F)F)CC2)c1 (10 µM) 0
CO[C@H]1C[C@@H]2CC[C@@H](C)[C@@](O)(O2)C(=O)C(=O)N2CCCC[C@H]2C(=O)O[C@H]([C@H](C)C[C@@H]2CC[C@@H](O)[C@H](OC)C2)CC(=O)[C@H](C)/C=C(\C)[C@@H](O)[C@@H](OC)C(=O)[C@H](C)C[C@H](C)/C=C/C=C/C=C/1C [Rapamycin] (10 µM) 0
CN(C)CCN(Cc1ccc(Cl)cc1)c1ccccn1 [Chloropyramine hydrochloride] (10 µM) 0
O=C(Nc1ccc(F)cc1F)[C@H](NC(=S)Nc1cc(C(F)(F)F)cc(C(F)(F)F)c1)c1ccccc1 (2.5 µM) 0
Cc1ccc(Nc2cc(-c3cccc(N4C(=O)c5ccccc5C4=O)c3)ncn2)cc1NS(C)(=O)=O (10 µM) 0
CC(C)(C)c1ccc(S(=O)(=O)Nc2ccc(-n3ccnc3)cc2)cc1 (10 µM) 0
CCc1cc(O)c(F)cc1-c1ccc2c(-c3nc4c([nH]3)CN(C3CCN(C)CC3)CC4)n[nH]c2c1 [JAK-IN-5 (hydrochloride)] (2 µM) 0
CC1=C2C(=O)O[C@@H](c3ccoc3)[C@]2(C)CCC1 [Fraxinellone] (10 µM) 0
COc1cc(C(N)=O)nc(-c2cccc(C#C[C@]3(O)CCN(C)C3=O)c2)c1 (10 µM) 0
COc1ncc(-c2nc(N3CCOCC3)nc3c(CN4CCC(C(C)(C)O)CC4)cc(F)cc23)cc1NS(C)(=O)=O [Linperlisib] (10 µM) 0
Fc1ccc(-c2nc(-c3ccccc3F)[nH]c2-c2ccncc2)cc1 (2.5 µM) 0
CC(C)=CC[C@H](O)C1=CC(=O)c2c(O)ccc(O)c2C1=O [(-)-Alkannin] (2.5 µM) 0
CC(C)c1cnc(-c2cc(Cl)ccc2F)cc1Nc1ccncc1C(=O)NC(CO)CO (2.5 µM) 0
Cn1cnc(-c2cc3nccc(Oc4ccc(NC(=S)NC(=O)Cc5ccccc5)cc4F)c3s2)c1 [MGCD-265 analog] (10 µM) 0
COC1(c2sc3c(N4CCOCC4)nc(-c4cnc(N)nc4)nc3c2C)COC1 (2.5 µM) 0
Cc1cc(NC(=O)c2cccc(NC(=O)/C=C/CN(C)C)c2)ccc1Nc1nccc(-c2cccnc2)n1 (10 µM) 0
O=C(/C=C/c1ccc(O)c(O)c1)OC1CC(OC(=O)/C=C/c2ccc(O)c(O)c2)(C(=O)O)CC(O)C1O (stereo unspecified) [1,3-Dicaffeoylquinic acid] (10 µM) 0
COc1ccc2c(c1O)OC(C)(C)c1c-2ccc2c1C(=O)N(c1ccc(C(=O)c3ccccc3)cc1)C2=O [Ampkinone] (10 µM) 0
CNC(=O)Nc1ccc(-c2cc(-c3ccnc(Nc4ccc(C)c(S(=O)(=O)N(C)C)c4)n3)ccn2)cc1 [hSMG-1 inhibitor 11e] (2.5 µM) 0

3 entries from above, arranged by molecular weight, ascending:
kinase-Nluc reporter destabilization hit call, inactive:
CNc1nc(Nc2cnn(C3CCN(C4COC4)CC3F)c2Cl)ncc1C(F)(F)F (stereo unspecified) (10 µM) 0
CN1CCN(c2ccc(C(=O)Nc3cc(-c4cccc(NS(=O)(=O)c5ccccc5)c4)[nH]n3)cc2)CC1 [BPR1J-097 Hydrochloride] (2.5 µM) 0
CNC(=O)Nc1ccc(-c2cc(-c3ccnc(Nc4ccc(C)c(S(=O)(=O)N(C)C)c4)n3)ccn2)cc1 [hSMG-1 inhibitor 11e] (2.5 µM) 0
